The text below walks through data of patent publication US20190262463A1.

The labels stand for the following.
B1: TPP-2090 (antibody, human IgG1, kappa, V domains shown)
VH: EVQLLESGGGLVQPGGSLRLSCAASGFTFSPYPMIWVRQAPGKGLEWVSYISPSGGSTHYADSVKGRFTISRDNSKNTLYLQMNSLRAEDTAVYYCARGGDTYFDYFDYWGQGTLVTVSS
VL: DIQMTQSPSSLSASVGDRVTITCRASQSISGYLNWYQQKPGKAPKLLIYQASSLQSGVPSRFSGSGSGTDFTLTISSLQPEDFATYYCQQSYTSPFITFGQGTKVEIKR
B2: 136.1(TPP-2194) (antibody, mouse IgG2a, kappa, V domains shown)
VH: EVKLEESGGGLVQPGGSMKLSCVASGFTFNNYWMSWVRQSPEKGLEWLAEIRLKSDNYATHYAESVKGKFTISRDDSKSRLYLQMNNLRAENTGIYYCTGGFADYFDYWGQGTTLTVSS
VL: DIVLTQSPASLTVSLGQRATISCRASQSVSTSSYSYMQWYQQRPGQPPKLLIKYATNLDSGVPARFSGSGSGTDFTLNIHPVEEEDAATYYCQHSWEIPYTFGGGTKLEIKR
B3: 18.3.3(TPP-2193) (antibody, mouse IgG2a, kappa, V domains shown)
VH: EVKLGESGGGLVQPGGSMKLSCVASGFPFTKYWMNWVRQSPEKGLEWVAEIRLKSDNYATHYAESAKGRFTISRDDSRSSVYLQMNNLRAEDTAIYYCSPTYADTMDYWGQGTSVTVSS
VL: DIVLTQSPASLAVSLGQRATISCKASQSVSTSTYSYMQWYQQRPGQSPKLLIKYASKLDSGVPARFSGSGSGTDFTLNIHPVEEEDTATYYCQHSWELPYTFGGGTRLEIKR
B4: P3G5(TPP-2195) (antibody, mouse IgG2a, kappa, V domains shown)
VH: QVQLQQSGPEVVRPGVSVKISCKGSGYTFTDYGIHWVKQSHAKSLEWIGVISTYNGYTNYNQKFKGKATMTVDKSSSTAYMELARLTSEDSAIYYCARAYYGNLYYAMDYWGQGTSVTVSS
VL: DIVLTQSPASLAVSLGQRATISCRANKSVSTSSYSYMHWYQQKPGQPPKLLIKYASNLESGVPARFSGSGSGTDFILNIHPVEEEDAATYYCQHSRELPFTFGSGTKLEIKR
B5: P4A8(TPP-1324) (antibody, human IgG1, kappa, V domains shown)
VH: QVQLVQSGAEVKKPGASVKVSCKGSGYTFTDYGMHWVRQAPGQGLEWMGVISTYNGYTNYNQKFKGRVTMTVDKSTSTAYMELRSLRSDDTAVYYCARAYYGNLYYAMDYWGQGTLVTVSS
VL: DIVLTQSPASLAVSLGQRATISCRASKSVSTSSYSYMHWYQQKPGQPPKLLIKYASNLESGVPARFSGSGSGTDFSLNIHPMEEDDTAMYFCQHSRELPFTFGGGTKLEIKR

These are yes or no findings as the source states them, for the method shown.

The assay has as its target TPP-1985, hTNFRSF12 amino acids a28-80-W42A-hIgG1-Fc (human). Put plainly: ELISA, coated TWEAKR-Fc, biotinylated IgG titrated; grades explained in p-1341. (In general: In an ELISA, binding on a coated surface is turned into a signal by an enzyme label.)
In the case of B1, the binding result was “no binding (tested: IC50 over 50 nM)”.
Regarding B2, the binding entry is “no binding (tested: IC50 over 50 nM)”.
The entry for B3 is “no binding (tested: IC50 over 50 nM)”; for B4 it is “no binding (tested: IC50 over 50 nM)”; for B5 it is “no binding (tested: IC50 over 50 nM)”.
